This passage reports binding results from article PMC5347783.

Protein sequences, listed by entry. Tags and fused reporters are not part of them.
UniProt Q9Y5Q3: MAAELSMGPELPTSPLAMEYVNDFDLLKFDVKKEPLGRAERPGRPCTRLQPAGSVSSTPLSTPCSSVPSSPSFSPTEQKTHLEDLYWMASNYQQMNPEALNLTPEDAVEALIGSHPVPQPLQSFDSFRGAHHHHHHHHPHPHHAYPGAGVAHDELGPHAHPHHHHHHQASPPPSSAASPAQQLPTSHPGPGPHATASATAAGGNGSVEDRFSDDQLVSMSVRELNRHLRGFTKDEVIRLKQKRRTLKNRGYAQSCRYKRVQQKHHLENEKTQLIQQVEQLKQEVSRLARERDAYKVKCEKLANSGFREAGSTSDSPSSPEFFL
UniProt P63279: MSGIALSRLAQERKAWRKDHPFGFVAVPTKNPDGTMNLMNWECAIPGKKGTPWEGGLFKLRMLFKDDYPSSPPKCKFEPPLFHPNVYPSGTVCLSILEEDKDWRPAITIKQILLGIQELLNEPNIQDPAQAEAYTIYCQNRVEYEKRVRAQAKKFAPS

No constants are given. Whether binding was seen depends on the method and setting. Binding seen in cells or lysates may run through a third protein. Some entries that bind do so weakly or less than the wild type.

The assay has as its target Flag-tagged MAFB (v-maf avian musculoaponeurotic fibrosarcoma oncogene homolog B) (human) (UniProt Q9Y5Q3). The assay can be described thus: co-IP; Flag-MAFB and HA-UBC9 co-transfected into HEK293T cells; lysates immunoprecipitated with Flag gel or HA gel; western blot with antibodies against Flag and HA. Background: A western blot detects proteins with antibodies after separation by electrophoresis.

Regarding “HA-UBC9 (SUMO E2 conjugating enzyme UBC9) (from UniProt P63279 1-158)”, the binding entry is recorded as “binds”.
